Data on eleven molecules can be found in PMC5327418.

Sequences of proteins named here, by UniProt entry; tags and fusion partners are left off.
UniProt P32569: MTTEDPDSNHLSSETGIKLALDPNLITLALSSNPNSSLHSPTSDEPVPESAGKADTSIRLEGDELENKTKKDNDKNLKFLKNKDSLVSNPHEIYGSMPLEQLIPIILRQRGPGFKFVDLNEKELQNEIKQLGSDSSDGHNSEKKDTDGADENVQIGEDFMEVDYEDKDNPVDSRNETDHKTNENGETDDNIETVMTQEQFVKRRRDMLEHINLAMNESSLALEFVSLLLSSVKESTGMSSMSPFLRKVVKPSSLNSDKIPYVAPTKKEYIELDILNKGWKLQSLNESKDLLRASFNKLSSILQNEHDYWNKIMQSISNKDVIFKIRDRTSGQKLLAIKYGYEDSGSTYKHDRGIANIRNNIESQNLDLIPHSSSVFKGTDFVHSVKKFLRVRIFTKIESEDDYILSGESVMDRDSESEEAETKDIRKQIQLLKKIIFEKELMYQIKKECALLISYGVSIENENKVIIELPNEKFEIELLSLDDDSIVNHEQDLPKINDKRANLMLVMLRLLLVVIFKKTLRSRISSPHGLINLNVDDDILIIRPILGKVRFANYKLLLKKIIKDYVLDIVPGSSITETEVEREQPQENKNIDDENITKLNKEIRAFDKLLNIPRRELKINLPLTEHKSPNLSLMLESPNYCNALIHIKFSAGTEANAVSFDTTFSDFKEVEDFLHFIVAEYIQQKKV

For the assay, the target named is Med17-HA (S. cerevisiae (endogenous in S288c)) (UniProt P32569). The assay is described as follows: affinity purification with mass spectrometry; CoIP of Med17-HA on anti-HA magnetic beads from cryoground yeast lysate, 2 h at 4 °C; 20 mM HEPES pH 7.5, 300 mM KOAc, 10% glycerol, 0.01% NP-40, 6 mM MnSO4, 1 mM DTT, Cyanase nuclease; parallel control CoIP from 15N-labelled wild type cells, mixing after purification (MAP); GeLC-MS/MS, three biological replicates.

No constants are given. Whether binding was seen depends on the method and setting. In cells and extracts the contact can be indirect. A yes stands for co-enrichment or nearness to the bait. Other partners may have been found.

B1: Spt20 (protein, UniProt P50875 1-604)
chain: MSANSPTGNDPHVFGIPVNATPSNMGSPGSPVNVPPPMNPAVANVNHPVMRTNSNSNANEGTRTLTREQIQQLQQRQRLLLQQRLLEQQRKQQALQNYEAQFYQMLMTLNKRPKRLYNFVEDADSILKKYEQYLHSFEFHIYENNYKICAPANSRLQQQQKQPELTSDGLILTKNNETLKEFLEYVARGRIPDAIMEVLRDCNIQFYEGNLILQVYDHTNTVDVTPKENKPNLNSSSSPSNNNSTQDNSKIQQPSEPNSGVANTGANTANKKASFKRPRVYRTLLKPNDLTTYYDMMSYADNARFSDSIYQQFESEILTLTKRNLSLSVPLNPYEHRDMLEETAFSEPHWDSEKKSFIHEHRAESTREGTKGVVGHIEERDEFPQHSSNYEQLMLIMNERTTTITNSTFAVSLTKNAMEIASSSSNGVRGASSSTSNSASNTRNNSLANGNQVALAAAAAAAAVGSTMGNDNNQFSRLKFIEQWRINKEKRKQQALSANINPTPFNARISMTAPLTPQQQLLQRQQQALEQQQNGGAMKNANKRSGNNATSNNNNNNNNLDKPKVKRPRKNAKKSESGTPAPKKKRMTKKKQSASSTPSSTTMS
With B1, the binding entry is recorded as “binds”.

B2: Sgf11 (protein, UniProt Q03067 1-99)
chain: MTEETITIDSISNGILNNLLTTLIQDIVARETTQQQLLKTRYPDLRSYYFDPNGSLDINGLQKQQESSQYIHCENCGRDVSANRLAAHLQRCLSRGARR
In the case of B2, the binding result is “binds”.

B3: Sgf29 (protein, UniProt P25554 1-259)
chain: MDGYWDVVVSSLQDIYNANEVIPFDDELQTKKLNFLNMSKDQLQLHLNTFQEHMENVNRVHRILDNVRSNLSLMLNQSREEKSEENTEDAEEGEGTRMALSQGKKAVGKVGRSYWTSEYNPNAPILVGSEVAYKPRRGSADGEWIQCEVLKVVADGTRFEVRDPEPDELGNSGKVYKCNRKELLLIPPGFPTKNYPPGTKVLARYPETTTFYPAIVIGTKRDGTCRLRFDGEEEVDKETEVTRRLVLPSPTALANLARK
In the case of B3, the binding entry is recorded as “binds”.

B4: Sgf73 (protein, UniProt P53165 1-657)
chain: MRSGDAEIKGIKPKVIEEYSLSQGSGPSNDSWKSLMSSAKDTPLQYDHMNRESLKKYFNPNAQLIEDPLDKPIQYRVCEKCGKPLALTAIVDHLENHCAGASGKSSTDPRDESTRETIRNGVESTGRNNNDDDNSNDNNNDDDDDDDNDDNEDDDDADDDDDNSNGANYKKNDSSFNPLKRSTSMESANTPNMDTKRSKTGTPQTFSSSIKKQKKVKQRNPTEKHLIDFNKQCGVELPEGGYCARSLTCKSHSMGAKRAVSGRSKPYDVLLADYHREHQTKIGAAAEKRAKQQELQKLQKQIQKEQKKHTQQQKQGQRSKQRNVNGGKSAKNGGKSTVHNGNNINEIGHVNLTPEEETTQVLNGVSRSFPLPLESTVLSSVRYRTKYFRMREMFASSFSVKPGYTSPGYGAIHSRVGCLDLDRTTDYKFRVRTPQPINHLTNQNLNPKQIQRLQQQRALQAQLLSQQQQQQQQQQQHHSPQAQAQASTQQPTQGMVPNHFPGGATNSSFNANVSSKQIQQQQQQQQHKSQDTGLTPLEIQSQQQKLRQQQLQQQKFEAAASYLANATKLMQESNQDSHLSGTHNNNSSKNGNNNLMTMKASISSPNTSVNSIQSPPSVNSVNGSGQGVSTGINVSGNNGRIEVGIGNSVNPYNGRIN
In the case of B4, the binding result was “binds”.

B5: Spt3 (protein, UniProt P06844 1-337)
chain: MMDKHKYRVEIQQMMFVSGEINDPPVETTSLIEDIVRGQVIEILLQSNKTAHLRGSRSILPEDVIFLIRHDKAKVNRLRTYLSWKDLRKNAKDQDASAGVASGTGNPGAGGEDDLKKAGGGEKDEKDGGNMMKVKKSQIKLPWELQFMFNEHPLENNDDNDDMDEDEREANIVTLKRLKMADDRTRNMTKEEYVHWSDCRQASFTFRKNKRFKDWSGISQLTEGKPHDDVIDILGFLTFEIVCSLTETALKIKQREQVLQTQKDKSQQSSQDNTNFEFASSTLHRKKRLFDGPENVINPLKPRHIEEAWRVLQTIDMRHRALTNFKGGRLSSKPIIM
For B5, the binding result was “binds”.

B6: Sub1 (protein, UniProt P54000 1-292)
chain: MSYYNRYRNKRRSDNGGGNLSNSNNNNGGMPSGLSASDAIFDLGKNKRVTVRQFRNINLIDIREYYLDSSTGEMKPGKKGISLTEDLYDELLKHRLNIDEALRRLGSKRPKTKMVRLLSDDEYEDDNNNDSTNNDKDKNGKDKNSPKKRREDKSKASNESHDLEPRSKKKKPAPPTLLPHEENIQNAEREANATLIIPGQAGRKQQEERKQKEKEEAEEAKAKAVAEQEKEAKAKEKIAEPEPEPVPTLQAKKEDIVSNINESKDANSSDEEFAQSLEAEMNKAEDDISEEE
B6: the binding result is reported as “binds”.

B7: Ada2 (protein, UniProt Q02336 1-434)
chain: MSNKFHCDVCSADCTNRVRVSCAICPEYDLCVPCFSQGSYTGKHRPYHDYRIIETNSYPILCPDWGADEELQLIKGAQTLGLGNWQDIADHIGSRGKEEVKEHYLKYYLESKYYPIPDITQNIHVPQDEFLEQRRHRIESFRERPLEPPRKPMASVPSCHEVQGFMPGRLEFETEFENEAEGPVKDMVFEPDDQPLDIELKFAILDIYNSRLTTRAEKKRLLFENHLMDYRKLQAIDKKRSKEAKELYNRIKPFARVMTAQDFEEFSKDILEELHCRARIQQLQEWRSNGLTTLEAGLKYERDKQARISSFEKFGASTAASLSEGNSRYRSNSAHRSNAEYSQNYSENGGRKKNMTISDIQHAPDYALLSNDEQQLCIQLKILPKPYLVLKEVMFRELLKTGGNLSKSACRELLNIDPIKANRIYDFFQSQNWM
B7: the binding result was “binds”.

B8: Ubp8 (protein, UniProt P50102 1-471)
chain: MSICPHIQQVFQNEKSKDGVLKTCNAARYILNHSVPKEKFLNTMKCGTCHEINSGATFMCLQCGFCGCWNHSHFLSHSKQIGHIFGINSNNGLLFCFKCEDYIGNIDLINDAILAKYWDDVCTKTMVPSMERRDGLSGLINMGSTCFMSSILQCLIHNPYFIRHSMSQIHSNNCKVRSPDKCFSCALDKIVHELYGALNTKQASSSSTSTNRQTGFIYLLTCAWKINQNLAGYSQQDAHEFWQFIINQIHQSYVLDLPNAKEVSRANNKQCECIVHTVFEGSLESSIVCPGCQNNSKTTIDPFLDLSLDIKDKKKLYECLDSFHKKEQLKDFNYHCGECNSTQDAIKQLGIHKLPSVLVLQLKRFEHLLNGSNRKLDDFIEFPTYLNMKNYCSTKEKDKHSENGKVPDIIYELIGIVSHKGTVNEGHYIAFCKISGGQWFKFNDSMVSSISQEEVLKEQAYLLFYTIRQVN
Consider B8, for which the binding result is “binds”.

B9: Sus1 (protein, UniProt Q6WNK7 1-96)
chain: MTMDTAQLKSQIQQYLVESGNYELISNELKARLLQEGWVDKVKDLTKSEMNINESTNFTQILSTVEPKALEMVSDSTRETVLKQIREFLEEIVDTQ
As for B9, the binding result was “binds”.

B10: Spt8 (protein, UniProt P38915 1-602)
chain: MDEVDDILINNQVVDDEEDDEEMLSGLENDSKQDLEGNDDGGEDEEDDDDDDEDDDDDEDEREDDDEQEDDDGEDDAARMDKTATPTNEHQHDEQKAAAAGAGGAGDSGDAVTKIGSEDVKLSDVDGGVGSREASSSTHEASANGEVYEYYKHMLNAAQIADSYNIYPTAAIPIQTHVNALAVSRGLKYLFLGGSDGYIRKYDLLNTLEGKLSLTILQKHSLAESIQNAGILQSYWENEIPQKKSEMKLSANKTDYEPKVSPVHSLEVQSECLFILSGLQNGGITMQGVRYMEGSIAHYFKGRNGHTQIVNILRLNGQEDRFLSGSWDKRLLEWDLQTGDIVNEFKKSRSELSSLEMRPLYSSVDVSGNVNSGKENENADDDMDSLFGDEDEDEKQDAGNEPVETGDGSNGEENKEQISEESLNIVYDESVFMTSGLNGSVHIWDRRMTQSPALSLERGAGVPPWCLSACWGVDGDHVYAGRRNACVEQFDLKMPSKPIHNLKLPSISGPVSCVKAMPNNKHLLCASRDNIRLYNVEIAVDASNSTTKSSKVPFLIVPGHHGGIISNLYLDPTSRFIISTSGNRGWQGNSTDTTLIYDIDLE
In the case of B10, the binding entry is given as “binds”.

B11: Ngg1 (protein, UniProt P32494 1-702)
chain: MPRHGRRGKLPKGEKLPKKEGGDNTPSKLLSSMLKTLDLTFERDIGMLNGKSVRSIPNKKTLLELQSQLDSLNEILGTIARGDQETIEALRKIRDSKNEKQANDEKQETSNADGQHESSTATEETNIIDKGVQSPPKPPPSNEISGTIENDVESIKQAADNMAKEEINEDKDLQVHRDQPREKRPFDSETENRATENENTQRPDNKKQKIDVDKMENDPTVKNPKSEFVVSQTLPRAAAALGLFNEEGLESTGEDFLKKKYNVASYPTNDLKDLLPGELPDMDFSHPKPTNQIQFNTFLAFVENFFKDLSDDNLKFLKMKYIIPDSLQFDKTYDPEVNPFIIPKLGPLYTDVWFKDENDKNSAYKKPSPYSNDASTILPKKSANELDDNALESGSISCGPLLSRLLSAVLKDDNDKSELQSSKIIRDGGLPRTGGEDDIQSFRNNNNDTVDMTLSQENGPSVQTPDNDIDEEASFQAKLAENKGSNGGTTSTLPQQIGWITNGINLDYPTFEERLKRELKYVGIYMNLPKDENNPNSDDPDWVTGREDDEISAELRELQGTLKQVTKKNQKRKAQLIPLVERQLAWQEYSSILEDLDKQIDQAYVKRIRVPKKRKKHHTAASNNVNTGTTSQIAQQKAANSSLKSLLDKRQRWINKIGPLFDKPEIMKRIPNESVFKDMDQEEDEDEADVFAQNTNKDVELN
For the molecule B11, the binding result is listed as “binds”.
